Record: PubChem BioAssay AID1159578 (Peter MacCallum Cancer Centre, 2015)
The deposit covers about 18,000 reagents; below is an unselected part. Over the whole deposit, about 1,030 (5.7%) were called active. 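Inactive calls also include pools with fewer than 3300 nuclei, whose migration was not assessed.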 Raw values vary from plate to plate and are shown uncorrected. Not all columns of the deposit are shown. No sequences are given here.

Test: 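Genome-wide hunt for genes controlling movement of lymphatic endothelial cells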 (primary screen)
Cell system: human lymphatic endothelial cells
Knock-down reagent: siRNA pool against human genes, 40 nM
Timing: 48 h after transfection
Measured: 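Cells stained with dye and imaged after a scratch; covered wound area and nuclei counted, duplicates averaged, migration set against mock wells and turned into a robust z-score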
Scale: migration robust z-score: higher = faster migration into the scratch; nuclei per well: higher = more cells in the well
Rule for the call: 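Pools averaging fewer than 3300 nuclei are never called; remaining pools count as changed when migration robust z lies outside -2 to 2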
Calls: active = migration changed; inactive = no migration change, or too few cells

target gene	migration robust z-score	migration class with cell-count check	nuclei per well, duplicate mean	call
PPARD (GeneID 5467)	-0.13	migration z between -2 and 2; enough cells	5394	inactive
NCOA7 (GeneID 135112)	-0.9	migration z between -2 and 2; enough cells	5284	inactive
RFPL4A (GeneID 342931)	-2.21	migration z below -2; enough cells	4750	active
PRSS48 (GeneID 345062)	-0.68	migration z between -2 and 2; enough cells	5329	inactive
KRT86 (GeneID 3892)	-1.4	migration z between -2 and 2; enough cells	6300	inactive
PHLDA3 (GeneID 23612)	0.32	migration z between -2 and 2; enough cells	4988	inactive
SLC22A13 (GeneID 9390)	-0.59	migration z between -2 and 2; enough cells	6076	inactive
POTEA (GeneID 340441)	0.75	migration z between -2 and 2; enough cells	5625	inactive
CEACAM5 (GeneID 1048)	2.7	migration z above 2; enough cells	5945	active
ZNF124 (GeneID 7678)	0.28	migration z between -2 and 2; enough cells	5832	inactive
TNFSF13B (GeneID 10673)	-0.06	migration z between -2 and 2; enough cells	5994	inactive
OTULIN (GeneID 90268)	0.83	migration z between -2 and 2; enough cells	5808	inactive
PPP1R15B (GeneID 84919)	0.6	migration z between -2 and 2; enough cells	4456	inactive
BCL9L (GeneID 283149)	-0.04	migration z between -2 and 2; enough cells	5360	inactive
RPP25L (GeneID 138716)	-0.84	migration z between -2 and 2; enough cells	4878	inactive
PYDC1 (GeneID 260434)	-1.3	migration z between -2 and 2; enough cells	3594	inactive
ZFAND3 (GeneID 60685)	-0.62	migration z between -2 and 2; enough cells	4254	inactive
TMEM120B (GeneID 144404)	-0.56	migration z between -2 and 2; enough cells	6008	inactive
FBLIM1 (GeneID 54751)	0.32	migration z between -2 and 2; enough cells	6328	inactive
PSG5 (GeneID 5673)	1.05	migration z between -2 and 2; enough cells	6844	inactive
SPOUT1 (GeneID 51490)	-0.12	migration z between -2 and 2; enough cells	6852	inactive
SYDE1 (GeneID 85360)	0.02	migration z between -2 and 2; enough cells	3800	inactive
OR51E1 (GeneID 143503)	-0.2	migration z between -2 and 2; enough cells	4148	inactive
OR2C1 (GeneID 4993)	-0.34	migration z between -2 and 2; enough cells	5314	inactive
SLC35B3 (GeneID 51000)	0.32	under 3300 nuclei; migration not judged	3208	inactive
DHRSX (GeneID 207063)	-0.52	migration z between -2 and 2; enough cells	4874	inactive
FOXF2 (GeneID 2295)	-0.01	migration z between -2 and 2; enough cells	5820	inactive
PTGER4 (GeneID 5734)	0.88	migration z between -2 and 2; enough cells	5138	inactive
CCDC33 (GeneID 80125)	-0.12	migration z between -2 and 2; enough cells	6224	inactive
TNKS2 (GeneID 80351)	0.18	migration z between -2 and 2; enough cells	6396	inactive
MMP28 (GeneID 79148)	-0.08	migration z between -2 and 2; enough cells	4836	inactive
FAM3C (GeneID 10447)	-0.64	migration z between -2 and 2; enough cells	5441	inactive
EXD2 (GeneID 55218)	-0.57	migration z between -2 and 2; enough cells	6346	inactive
MARCHF11 (GeneID 441061)	1.06	migration z between -2 and 2; enough cells	6117	inactive
ZNF302 (GeneID 55900)	0.52	migration z between -2 and 2; enough cells	5280	inactive
QNG1 (GeneID 84267)	1.74	migration z between -2 and 2; enough cells	4646	inactive
ZC3H15 (GeneID 55854)	0.11	migration z between -2 and 2; enough cells	6143	inactive
PLA2G12A (GeneID 81579)	0.44	migration z between -2 and 2; enough cells	4416	inactive
NTN3 (GeneID 4917)	-1.97	migration z between -2 and 2; enough cells	4650	inactive
ACTBL2 (GeneID 345651)	-2.52	migration z below -2; enough cells	4240	active
CYP2J2 (GeneID 1573)	1.06	migration z between -2 and 2; enough cells	5544	inactive
ESAM (GeneID 90952)	-1.02	migration z between -2 and 2; enough cells	7140	inactive
PKDCC (GeneID 91461)	-2.86	under 3300 nuclei; migration not judged	3004	inactive
ZYG11B (GeneID 79699)	0.25	migration z between -2 and 2; enough cells	7794	inactive
FGF10 (GeneID 2255)	-0.65	migration z between -2 and 2; enough cells	4562	inactive
ZNF75A (GeneID 7627)	-1.18	migration z between -2 and 2; enough cells	4604	inactive
GJB5 (GeneID 2709)	1.33	migration z between -2 and 2; enough cells	6157	inactive
ANKRD20A5P (GeneID 440482)	0.36	migration z between -2 and 2; enough cells	5718	inactive
KDM8 (GeneID 79831)	-1.05	migration z between -2 and 2; enough cells	5704	inactive
ANO3 (GeneID 63982)	0.75	migration z between -2 and 2; enough cells	6694	inactive
HEATR4 (GeneID 399671)	0.12	migration z between -2 and 2; enough cells	5632	inactive
PPWD1 (GeneID 23398)	0.24	migration z between -2 and 2; enough cells	6734	inactive
ABI3 (GeneID 51225)	2.17	migration z above 2; enough cells	6132	active
RBM39 (GeneID 9584)	-0.78	migration z between -2 and 2; enough cells	5654	inactive
MMAA (GeneID 166785)	-0.75	migration z between -2 and 2; enough cells	7341	inactive
GTSF1L (GeneID 149699)	-0.09	migration z between -2 and 2; enough cells	6418	inactive
MADD (GeneID 8567)	0.68	migration z between -2 and 2; enough cells	5786	inactive

Quoted from the listing (9 entries):
target gene	migration robust z-score	migration class with cell-count check	nuclei per well, duplicate mean	call
NCOA7 (GeneID 135112)	-0.9	migration z between -2 and 2; enough cells	5284	inactive
RFPL4A (GeneID 342931)	-2.21	migration z below -2; enough cells	4750	active
PRSS48 (GeneID 345062)	-0.68	migration z between -2 and 2; enough cells	5329	inactive
KRT86 (GeneID 3892)	-1.4	migration z between -2 and 2; enough cells	6300	inactive
PHLDA3 (GeneID 23612)	0.32	migration z between -2 and 2; enough cells	4988	inactive
SLC22A13 (GeneID 9390)	-0.59	migration z between -2 and 2; enough cells	6076	inactive
POTEA (GeneID 340441)	0.75	migration z between -2 and 2; enough cells	5625	inactive
CEACAM5 (GeneID 1048)	2.7	migration z above 2; enough cells	5945	active
ZNF124 (GeneID 7678)	0.28	migration z between -2 and 2; enough cells	5832	inactive
